Format: in vivo, human
Conditions: 1.3 mg/m2 twice weekly; of the 78 patients
Procedure: A multicenter, open-label, non-randomized Phase 2 trial was conducted, wherein enrolled were patients with relapsed myeloma that was refractory to therapy. Patients were treated with 1.3 mg of bortezomib per square meter of body surface area, twice weekly for two weeks, followed by one week without treatment, for up to eight cycles (24 weeks).
Statistical analysis focused on the need to estimate response rates within specified limits of accuracy in order to determine if either of the two dose levels 1.0 or 1.3 mg/m^2/dose alone or in combination with dexamethasone are sufficiently efficacious to warrant further clinical study. This study was noncomparative in nature; therefore efficacy comparisons between the two doses of bortezomib were not performed. In addition, this study provided safety data that helped to characterize the potential toxicity of treatment at the two evaluated dose levels for up to eight cycles of therapy.
Over 80% of the 78 patients completed 2 or more cycles of treatment, 62% completed 4 or more cycles, and 27% completed 8 cycles.

CC(C)C[C@H](NC(=O)[C@H](Cc1ccccc1)NC(=O)c1cnccn1)B(O)O [bortezomib, N-pyrazinecarbonyl-L-phenylalanine-L-leucineboronic acid]
patients who completed 2 or more cycles of treatment: Over 80% | patients who completed 4 or more cycles: 62% | patients who completed 8 cycles: 27%

Source: patent publication US20040156854A1, “Methods for the identification, assessment, and treatment of patients with proteasome inhibition therapy” (priority 2002, published 2004)
